One substance from article PMC3271191 can be followed below.

The target of this assay is T1, CEH-14 (C. elegans) (UniProt P20271).
T1 sequence: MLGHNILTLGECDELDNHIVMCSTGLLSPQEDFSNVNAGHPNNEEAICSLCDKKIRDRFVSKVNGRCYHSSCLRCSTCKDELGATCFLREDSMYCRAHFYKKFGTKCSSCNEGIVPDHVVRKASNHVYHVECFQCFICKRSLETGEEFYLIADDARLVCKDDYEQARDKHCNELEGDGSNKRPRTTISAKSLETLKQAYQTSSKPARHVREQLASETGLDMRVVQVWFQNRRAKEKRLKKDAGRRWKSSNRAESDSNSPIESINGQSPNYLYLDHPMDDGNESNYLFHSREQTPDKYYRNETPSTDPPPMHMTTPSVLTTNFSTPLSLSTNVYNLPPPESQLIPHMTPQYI
The assay can be described thus: two-hybrid; direct assays: Gal4AD-TF prey plasmids transformed into the haploid Gal4DB-TF bait strain (MaV103); beta-galactosidase assay on overlay filter membranes and growth on selective plates plus 20, 40 or 60 mM 3-AT; individual yeast transformant colonies scored.

No constants are given. Whether binding was seen depends on the method and setting. Binding calls can cover weak binding; strength is not graded here.

Regarding “AD-CEH-63 from the transcription factor array (lacks the N-terminus of CEH-63) (C. elegans) (domain or fragment)”, the binding entry is on record as “binds”.
